Data: article PMC4640669
These are yes or no findings as the source states them, for the method shown. Some results given as binding are weak or reduced against the parent protein; the word gives no strength.

Amino acid sequences for entries named in this document (tags omitted).
UniProt Q61501: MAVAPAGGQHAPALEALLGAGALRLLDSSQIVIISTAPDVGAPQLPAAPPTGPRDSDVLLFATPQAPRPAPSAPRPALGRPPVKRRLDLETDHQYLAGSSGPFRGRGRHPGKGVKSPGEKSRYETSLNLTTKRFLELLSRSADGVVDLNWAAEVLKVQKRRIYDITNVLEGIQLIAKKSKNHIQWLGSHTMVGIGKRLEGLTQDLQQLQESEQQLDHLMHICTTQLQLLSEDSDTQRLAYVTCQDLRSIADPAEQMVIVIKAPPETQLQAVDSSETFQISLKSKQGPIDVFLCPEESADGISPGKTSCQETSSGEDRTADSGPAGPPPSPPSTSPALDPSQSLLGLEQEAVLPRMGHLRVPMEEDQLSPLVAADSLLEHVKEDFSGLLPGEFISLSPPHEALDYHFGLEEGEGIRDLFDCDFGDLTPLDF

Molecular target: T1, retinoblastoma tumor suppressor protein (Rb) (mouse (endogenous in MC3T3)) (UniProt P13405)
T1 sequence: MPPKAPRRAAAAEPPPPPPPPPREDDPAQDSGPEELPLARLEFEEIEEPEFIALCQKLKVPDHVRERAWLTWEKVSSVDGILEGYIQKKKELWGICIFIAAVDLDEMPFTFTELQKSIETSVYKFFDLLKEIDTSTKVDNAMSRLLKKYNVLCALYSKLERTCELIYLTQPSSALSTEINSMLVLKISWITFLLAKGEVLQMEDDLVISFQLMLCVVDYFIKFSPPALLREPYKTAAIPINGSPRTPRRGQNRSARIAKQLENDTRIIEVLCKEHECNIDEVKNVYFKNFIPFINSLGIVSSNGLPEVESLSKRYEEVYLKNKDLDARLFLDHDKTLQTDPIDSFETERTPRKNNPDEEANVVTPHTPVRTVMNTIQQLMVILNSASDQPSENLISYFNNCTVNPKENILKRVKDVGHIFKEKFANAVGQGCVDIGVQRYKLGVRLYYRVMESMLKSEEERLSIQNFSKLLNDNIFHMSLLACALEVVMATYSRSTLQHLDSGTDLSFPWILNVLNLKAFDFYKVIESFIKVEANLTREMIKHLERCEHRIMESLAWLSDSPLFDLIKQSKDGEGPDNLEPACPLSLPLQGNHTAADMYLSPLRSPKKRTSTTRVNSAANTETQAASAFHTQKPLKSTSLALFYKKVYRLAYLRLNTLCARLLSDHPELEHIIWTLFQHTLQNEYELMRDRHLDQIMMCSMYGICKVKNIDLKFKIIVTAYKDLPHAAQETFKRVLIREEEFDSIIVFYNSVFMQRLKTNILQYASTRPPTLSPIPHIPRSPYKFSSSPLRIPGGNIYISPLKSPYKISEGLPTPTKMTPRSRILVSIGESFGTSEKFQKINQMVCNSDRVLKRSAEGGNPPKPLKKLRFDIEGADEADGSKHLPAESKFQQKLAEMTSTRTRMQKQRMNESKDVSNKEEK
Test: sequential chromatin immunoprecipitation (ChIP-on-ChIP); Rb+/+ MC3T3 cells cross-linked with 1% formaldehyde, DNA sheared to 1.0-1.5 kbp; immunoprecipitate obtained with anti-Rb antibody subjected to a second round with anti-E2F1 antibody; read out by PCR with primers against the Pak1 promoter

E2F1 transcription factor (from UniProt Q61501 1-430)
binding: binds
